In the test the target is Musashi-2 (MSI2), endogenous (human (endogenous in ST8814)) (UniProt Q96DH6). In words: affinity purification with mass spectrometry; immunoprecipitation of MSI2, 10% SDS-PAGE, Coomassie staining, gel cut into four segments, shotgun proteomics (Orbitrap Q Exactive HF-X), search against Homo sapiens UniProt; cells not given.

By UniProt entry, the sequences of proteins in these tests, tags left out.
UniProt Q96DH6: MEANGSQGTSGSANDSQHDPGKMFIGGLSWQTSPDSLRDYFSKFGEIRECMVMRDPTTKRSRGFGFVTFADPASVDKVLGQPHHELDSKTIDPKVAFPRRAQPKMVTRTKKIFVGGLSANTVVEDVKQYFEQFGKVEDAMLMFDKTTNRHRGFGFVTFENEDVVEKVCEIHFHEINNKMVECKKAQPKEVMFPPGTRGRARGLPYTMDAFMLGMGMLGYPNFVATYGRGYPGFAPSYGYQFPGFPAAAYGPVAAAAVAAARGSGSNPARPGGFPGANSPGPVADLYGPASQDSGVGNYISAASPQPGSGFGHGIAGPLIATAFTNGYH
UniProt Q03135: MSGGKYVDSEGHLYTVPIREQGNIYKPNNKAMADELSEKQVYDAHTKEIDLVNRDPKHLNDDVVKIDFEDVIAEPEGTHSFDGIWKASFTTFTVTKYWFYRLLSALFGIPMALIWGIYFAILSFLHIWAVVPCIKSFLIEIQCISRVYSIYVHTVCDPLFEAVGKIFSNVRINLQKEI

Results are given in words; binding and its absence hold for the method and conditions named. In cells and extracts the contact can be indirect. Here binding means that the protein was enriched with, or labelled near, the bait; the list need not be complete.

Take “Caveolin-1 (CAV1), endogenous (from UniProt Q03135 1-178)”: the binding result is listed as “binds”.

The values are drawn from publication PMC7326958.
